Assay results as given in PMC9182007, “Statistical Methods in the Study of Protein Binding and Its Relationship to Drug Bioavailability in Breast Milk” (Molecules, 2022).

Protein sequences, listed by entry. Tags and fused reporters are not part of them. Residues count along the entry.
UniProt P02768, 25-609: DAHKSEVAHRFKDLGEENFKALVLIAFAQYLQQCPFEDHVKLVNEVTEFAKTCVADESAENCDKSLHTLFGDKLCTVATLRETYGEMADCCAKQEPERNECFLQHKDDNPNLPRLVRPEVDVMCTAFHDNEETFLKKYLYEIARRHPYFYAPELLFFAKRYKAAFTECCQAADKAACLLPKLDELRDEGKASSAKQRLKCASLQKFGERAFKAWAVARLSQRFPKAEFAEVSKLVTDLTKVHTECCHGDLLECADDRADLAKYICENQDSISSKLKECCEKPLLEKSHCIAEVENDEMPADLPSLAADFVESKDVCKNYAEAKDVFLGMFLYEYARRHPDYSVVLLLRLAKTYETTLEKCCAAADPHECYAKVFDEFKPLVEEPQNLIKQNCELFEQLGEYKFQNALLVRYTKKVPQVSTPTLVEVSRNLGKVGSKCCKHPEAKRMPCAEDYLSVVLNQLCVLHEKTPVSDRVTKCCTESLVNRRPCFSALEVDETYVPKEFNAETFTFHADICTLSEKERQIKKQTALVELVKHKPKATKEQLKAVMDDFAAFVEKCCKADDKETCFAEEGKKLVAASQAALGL

Experiments:
[1] = biological target: T1, human serum albumin (HSA) (Homo sapiens, UniProt P02768); assay: in vitro; settings: immobilized hsa column, pH 7.4
[2] = HPLC on immobilized artificial membrane column (HPLCIAM); type: physicochemical
[3] = NP TLC on non-impregnated control plates; type: physicochemical; settings: Table S3, non-impregnated NP plate; acetonitrile/acetate buffer pH 7.4/methanol 60:20:20
plasma protein = settings: Table S1, plasma protein binding given as fraction; ref DrugBank [7]; cited from earlier work
[4] = biological target: T1, human serum albumin (HSA); settings: pH 7.4
[5] = RP TLC on non-impregnated control plates; type: physicochemical

| SMILES | chromatographic logD [1] | log k IAM ([2]; Table S5, IAM column, pH 7.4) | k IAM ([2]; Table S5, retention factor, IAM column, phosphate buffer pH 7.4/acetonitrile 80:20) | CNP (Rf, control NP plate) [3] | PB (plasma protein) | k HSA [4] | CRP (Rf, control RP plate) ([5]; Table S4, non-impregnated RP plate, acetonitrile/acetate buffer pH 7.4/methanol 60:20:20) | kIAM ([2]; Table S9, external group) | log kIAM ([2]; Table S9, external group) | CRP (Rf value from the non-impregnated RP plate, control) ([5]; Table S8, external group) |
| --- | --- | --- | --- | --- | --- | --- | --- | --- | --- | --- |
| CCC[C@@H]1C[C@@H](C(=O)N[C@@H]([C@H]2O[C@H](SC)[C@H](O)[C@@H](O)[C@H]2O)[C@H](C)Cl)N(C)C1 [clindamycin] | 0.13 | 1.05 | 11.34 | 0.69 | 0.93 | 1.34 | 0.25 |  |  |  |
| CCn1cc(C(=O)O)c(=O)c2cc(F)c(N3CCN(C)CC3)cc21 [pefloxacin] |  |  |  |  |  |  |  | 2.91 | 0.46 | 0.76 |
